No constants are given. Whether binding was seen depends on the method and setting. For part of these data: Binding seen in cells or lysates may run through a third protein. Some results given as binding are weak or reduced against the parent protein; the word gives no strength. Each block holds one molecule with its values, some of them ahead of it.
Tests used:
[1] = target: TLR4 (endogenous mouse Toll-like receptor 4) (mouse (endogenous in BMDCs and BMDMs)) (UniProt Q9QUK6); experiment: native gel or EMSA; whole-cell lysates on 7.5% native PAGE (pH 8.8), running buffer 192 mM glycine, 24 mM Tris pH 8.3, no detergents; TLR4 dimers and monomer detected by immunoblot with anti-TLR4 (ab13556); cells treated with LPS with or without sGRP78
[2] = target: full length mouse TLR4 with His6 epitope (HIS-TLR4) or FLAG (FLAG-TLR4) (mouse) (UniProt Q9QUK6); experiment: co-IP; Tlr4-/- BMDCs co-transfected with pHIS-TLR4 and pFLAG-TLR4 for 48 h, then treated with sGRP78 and/or LPS for 3 h; extracts immunoprecipitated with anti-FLAG, probed with anti-HIS
[3] = target: TLR4 (endogenous mouse Toll-like receptor 4) (mouse (endogenous in BMDCs and BMDMs)) (UniProt Q9QUK6); experiment: co-IP; immunoprecipitation of endogenous TLR4 from cell lysates (IP lysis buffer: 20 mM Tris-HCl pH 7.4, 150 mM NaCl, 0.5% Nonidet-P40), antibody-protein A/G agarose overnight at 4 °C, immunoblot; cells with or without sGRP78 and FITC-LPS

The chains behind the UniProt entries cited, without tags or fusion partners. Residues count along the entry.
UniProt Q9QUK6, residues 26-835: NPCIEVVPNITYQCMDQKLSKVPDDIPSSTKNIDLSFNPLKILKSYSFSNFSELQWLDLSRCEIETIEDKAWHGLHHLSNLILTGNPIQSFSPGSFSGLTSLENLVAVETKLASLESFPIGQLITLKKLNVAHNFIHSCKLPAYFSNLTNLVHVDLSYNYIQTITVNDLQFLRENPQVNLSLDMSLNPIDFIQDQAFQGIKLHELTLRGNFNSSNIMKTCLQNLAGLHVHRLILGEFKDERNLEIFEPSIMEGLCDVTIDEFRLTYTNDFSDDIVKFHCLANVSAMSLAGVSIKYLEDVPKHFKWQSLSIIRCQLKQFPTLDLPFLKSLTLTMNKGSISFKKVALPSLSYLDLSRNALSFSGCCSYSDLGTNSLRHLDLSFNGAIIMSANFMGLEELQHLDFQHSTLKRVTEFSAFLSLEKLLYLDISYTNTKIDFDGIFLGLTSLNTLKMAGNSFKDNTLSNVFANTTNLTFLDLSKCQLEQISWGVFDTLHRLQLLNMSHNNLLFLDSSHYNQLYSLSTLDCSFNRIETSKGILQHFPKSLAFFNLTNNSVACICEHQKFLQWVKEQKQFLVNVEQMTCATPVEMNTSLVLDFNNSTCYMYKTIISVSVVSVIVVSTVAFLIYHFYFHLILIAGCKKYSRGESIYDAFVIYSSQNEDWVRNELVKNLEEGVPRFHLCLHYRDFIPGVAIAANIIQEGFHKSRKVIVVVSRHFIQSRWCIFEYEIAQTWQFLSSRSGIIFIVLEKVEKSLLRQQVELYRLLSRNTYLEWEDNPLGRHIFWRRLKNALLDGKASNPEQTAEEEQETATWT

- binding [1]: binds
Molecule: TLR4 (endogenous mouse Toll-like receptor 4) (from UniProt Q9QUK6 26-835)

- binding [2]: binds
Molecule: full length mouse TLR4 with His6 epitope (HIS-TLR4) or FLAG (FLAG-TLR4) (from UniProt Q9QUK6 26-835) (receptor)

- binding [3]: binds
B1: CD14 (endogenous mouse) (receptor, UniProt P10810 16-336)
chain: SPAPPEPCELDEESCSCNFSDPKPDWSSAFNCLGAADVELYGGGRSLEYLLKRVDTEADLGQFTDIIKSLSLKRLTVRAARIPSRILFGALRVLGISGLQELTLENLEVTGTAPPPLLEATGPDLNILNLRNVSWATRDAWLAELQQWLKPGLKVLSIAQAHSLNFSCEQVRVFPALSTLDLSDNPELGERGLISALCPLKFPTLQVLALRNAGMETPSGVCSALAAARVQLQGLDLSHNSLRDAAGAPSCDWPSQLNSLNLSFTGLKQVPKGLPAKLSVLDLSYNRLDRNPSPDELPQVGNLSLKGNPFLDSESHSEKFN

— publication PMC9262968
